Measurements as given in patent publication US20090208508A1, “NOVEL USE OF UBIQUITIN C-TERMINAL HYDROLASE-L1” (SK CORPORATION, priority 2005, published 2009).
No constants are given. Whether binding was seen depends on the method and setting. For part of these data: Binding seen in cells or lysates may run through a third protein. Some entries that bind do so weakly or less than the wild type.

Chains of the proteins cited; added tags and fusions are not shown. Lines headed by an entry give the natural chain unless they say otherwise; changes in a name come on top. Residues count along the entry.
UniProt P27361, residues 2-379: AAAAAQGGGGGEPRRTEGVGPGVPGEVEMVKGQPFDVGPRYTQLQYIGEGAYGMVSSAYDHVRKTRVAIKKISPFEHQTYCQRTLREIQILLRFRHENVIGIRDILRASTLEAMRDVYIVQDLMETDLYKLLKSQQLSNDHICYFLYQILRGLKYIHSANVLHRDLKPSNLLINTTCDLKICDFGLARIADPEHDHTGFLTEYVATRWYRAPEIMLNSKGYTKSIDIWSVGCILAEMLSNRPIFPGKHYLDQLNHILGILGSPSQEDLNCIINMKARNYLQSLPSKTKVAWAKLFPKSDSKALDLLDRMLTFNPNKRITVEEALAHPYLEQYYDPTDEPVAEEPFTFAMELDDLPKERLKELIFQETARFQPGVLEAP
UniProt P09936: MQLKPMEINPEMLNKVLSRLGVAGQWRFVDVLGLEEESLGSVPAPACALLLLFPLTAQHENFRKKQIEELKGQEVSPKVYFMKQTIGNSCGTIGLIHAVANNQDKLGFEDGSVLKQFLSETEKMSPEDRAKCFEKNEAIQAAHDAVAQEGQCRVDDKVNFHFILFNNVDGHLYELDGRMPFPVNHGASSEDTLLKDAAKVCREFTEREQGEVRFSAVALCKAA

Assays:
[1] = biological target: 44 kDa protein kinase, mitogen-activated protein kinase (UniProt P27361); experiment: co-immunoprecipitation and MALDI-TOF MS, HEK293T cells
[2] = biological target: 44 kDa protein kinase, mitogen-activated protein kinase (UniProt P27361); experiment: Western blot of the UCH-L1 immunoprecipitate with anti-ERK antibody (FIG. 9)
[3] = biological target: 44 kDa protein kinase, mitogen-activated protein kinase (UniProt P27361); experiment: co-immunoprecipitation with Flag-UCH-L1 from transfected HEK293T cells, 2D-PAGE, MALDI-TOF MS (spot number not given, stands under spot 7)

Measured: binding

flag-tagged UCH-L1 (Ubiquitin C-terminal hydrolase-L1) expressed from pFlag-CMV-2-UCH-L1 (from UniProt P09936 1-220) (enzyme)
binds: [1] | [2] | [3]
